# According to patent US7253176B1, “Immunosuppressive effects of 8-substituted xanthine derivatives” (K.U. Leuven Research & Development, priority 2000, dated 2007):
# At least one structure is not confirmed: it was looked up by name or label, or the drawing left a doubt.
# Test system: Highly purified T cells
# Assay: T cell proliferation induced by anti-CD28 mAb+PMA (BrdU)
# Assay type: cell-based, human
# Conditions: anti-CD28 mAb+PMA pathway; read-out: IC50 aCD28
# From the text: Various models may be used for testing an immunosuppressive effect. In vivo, for example, different transplantation models are available. They are strongly influenced by different immunogenicities, depending on the donor and recipient species used and depending on the nature of the transplanted organ. The survival time of transplanted organs can thus be used to measure the suppression of the immune response. In vitro, there exist also various models. The most used are lymphocyte activation tests. Usually activation is measured via lymphocyte proliferation. Inhibition of proliferation thus always means immunosuppression under the experimental conditions applied. […]
# Highly purified T cells (10^6/ml) were stimulated by immobilized anti-CD3 or anti-CD28 mAb in the presence of PMA. […] After a further overnight incubation the T cell proliferation was measured using a calorimetric immunoassay for qualification of cell proliferation based on measurements of the incorporation of BrdU during DNA synthesis. The optical density (OD) was measured by a Behring EL311 place reader at 450 nm (reference wavelength: […]). The percent suppression of proliferation by drugs was counted using the formula: […]
structure (smiles),measurement,value
"C#CCn1c(=O)n(C)c(=O)c2c1ncn2C [Compound 67, 1,7-dimethyl-3-propynylxanthine]",IC50,200 µM
